According to patent publication US20030165506A1:
Results are given in words; binding and its absence hold for the method and conditions named. Some entries that bind do so weakly or less than the wild type.

Chains of the proteins cited; added tags and fusions are not shown. Lines headed by an entry give the natural chain unless they say otherwise; changes in a name come on top. Residues count along the entry.
UniProt P35222, residues 14-172: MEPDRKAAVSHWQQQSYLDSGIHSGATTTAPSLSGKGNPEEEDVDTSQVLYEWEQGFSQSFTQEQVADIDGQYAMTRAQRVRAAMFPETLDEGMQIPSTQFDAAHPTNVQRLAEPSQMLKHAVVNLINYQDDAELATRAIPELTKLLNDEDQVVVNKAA
UniProt P0A7C2: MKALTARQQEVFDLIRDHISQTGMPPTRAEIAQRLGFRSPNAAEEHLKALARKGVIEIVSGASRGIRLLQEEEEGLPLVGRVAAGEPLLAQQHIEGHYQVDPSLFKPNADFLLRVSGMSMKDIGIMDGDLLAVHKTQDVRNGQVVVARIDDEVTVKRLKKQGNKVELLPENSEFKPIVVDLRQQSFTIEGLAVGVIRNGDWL

Biological target: β-catenin prey fusion of plasmid pGAD424-βctn (UniProt P35222)
Test: yeast two-hybrid, L40 strain, CPRG quantification (FIG. 7B)

binding: binds
Substance: human αE-catenin fused to the LexA DNA binding domain, bait plasmid pLexMG-αECTN (from UniProt P0A7C2 1-202; P35221 2-906)
